The target of this assay is FBN1^E2cbEGF1 (fibrillin-1 EGF2-EGF3-Hyb1-cbEGF1) (human) (UniProt P35555). The assay can be described thus: SAXS; FBN1^E2cbEGF1 at 11.55, 5.78, 2.89 and 1.44 mg/mL; 20 mM MES pH 5.4, 5 mM CaCl2, 5% glycerol; both purified.

The chains behind the UniProt entries cited, without tags or fusion partners. Where a name states a change or a piece, a line headed by the entry shows the natural chain unless it says otherwise. A line that says so, or that is headed by a name, gives the form on record, which may keep a tag or linker.
FBN1^E2cbEGF1 (fibrillin-1 EGF2-EGF3-Hyb1-cbEGF1) (P35555, form named): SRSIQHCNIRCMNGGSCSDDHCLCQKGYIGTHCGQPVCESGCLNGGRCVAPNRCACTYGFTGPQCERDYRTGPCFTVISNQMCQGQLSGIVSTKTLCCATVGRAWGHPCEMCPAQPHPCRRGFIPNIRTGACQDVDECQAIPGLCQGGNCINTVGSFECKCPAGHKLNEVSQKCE

Results are given in words; binding and its absence hold for the method and conditions named.

Experimental findings from article PMC5548924, “The N-Terminal Region of Fibrillin-1 Mediates a Bipartite Interaction with LTBP1” (Structure(London, England:1993), 2017) are described below.

“FBN1^E2cbEGF1 (fibrillin-1 EGF2-EGF3-Hyb1-cbEGF1) (from UniProt P35555 113-287) (domain or fragment)”: the binding entry is on record as “no binding (tested: 11.55 mg/mL)”.
